Source: publication PMC3953482, “Fha Interaction with Phosphothreonine of TssL Activates Type VI Secretion in Agrobacterium tumefaciens” (PLoS Pathogens, 2014)
No constants are given. Whether binding was seen depends on the method and setting.

Legend:
[1] = molecular target: Fha7-267^R30AS46A (truncated Fha with a mutated FHA domain) (Agrobacterium tumefaciens C58); assay: condition: 200 µM protein in the sample cell and 6 mM peptide in the injection syringe; ITC; MicroCal iTC200; 200 µM Fha protein in the sample cell, 6 mM peptide in the injection syringe, 25 injections, 25°C, 50 mM Tris-HCl (pH 8.0), 150 mM NaCl; One Set of Sites model with the N value fixed at 1; both purified
[2] = molecular target: Fha7-267^WT (truncated His-tagged Fha with the intact FHA domain) (Agrobacterium tumefaciens C58); assay: as above

Binder	binding [1]	binding [2]
DLPTVVEI (phosphothreonine (pT, Thr 14 of TssL; 4th residue of the peptide)) [8 mer phosphorylated TssL peptide (DLPpTVVEI)]	no binding	
VSTQEL (phosphothreonine (pT; 3rd residue of the peptide)) [6 mer phosphorylated CHK2 peptide (VSpTQEL)]		no binding
